Source: ChEMBL document CHEMBL1125116 (J Med Chem, 1990)

Sequences of proteins named here, by UniProt entry; tags and fusion partners are left off.
UniProt P61169, whole entry: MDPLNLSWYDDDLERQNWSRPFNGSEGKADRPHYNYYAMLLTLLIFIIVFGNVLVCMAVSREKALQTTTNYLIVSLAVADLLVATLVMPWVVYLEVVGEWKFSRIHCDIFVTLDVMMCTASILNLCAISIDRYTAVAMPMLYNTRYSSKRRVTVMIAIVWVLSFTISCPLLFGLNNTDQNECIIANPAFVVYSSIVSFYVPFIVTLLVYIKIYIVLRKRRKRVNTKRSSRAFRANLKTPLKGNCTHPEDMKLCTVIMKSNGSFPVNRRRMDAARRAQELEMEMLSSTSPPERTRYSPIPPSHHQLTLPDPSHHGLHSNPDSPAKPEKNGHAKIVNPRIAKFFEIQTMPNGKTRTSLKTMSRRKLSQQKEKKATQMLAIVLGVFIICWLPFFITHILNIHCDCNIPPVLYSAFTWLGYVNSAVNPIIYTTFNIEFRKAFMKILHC

Molecular target: D(2) dopamine receptor (Rattus norvegicus, UniProt P61169)
Assay: Competitive binding assay against Dopamine receptor D2 in rat striatal membranes and [125I]-IBF radioligand
Format: cell membranes, Striatum, Membrane

Question: With `CC(C)NCC(O)COc1cccc2ccccc12` (stereo unspecified) [PROPRANOLOL] as the compound, how does the Ki read?
Answer: The Ki was over 10 µM.
